Laboratory results from patent US20070232520A1.
No constants are given. Whether binding was seen depends on the method and setting. In cells and extracts the contact can be indirect. Some results given as binding are weak or reduced against the parent protein; the word gives no strength.

The chains behind the UniProt entries cited, without tags or fusion partners. Where a name states a change or a piece, a line headed by the entry shows the natural chain unless it says otherwise. Residues count along the entry.
UniProt P19438: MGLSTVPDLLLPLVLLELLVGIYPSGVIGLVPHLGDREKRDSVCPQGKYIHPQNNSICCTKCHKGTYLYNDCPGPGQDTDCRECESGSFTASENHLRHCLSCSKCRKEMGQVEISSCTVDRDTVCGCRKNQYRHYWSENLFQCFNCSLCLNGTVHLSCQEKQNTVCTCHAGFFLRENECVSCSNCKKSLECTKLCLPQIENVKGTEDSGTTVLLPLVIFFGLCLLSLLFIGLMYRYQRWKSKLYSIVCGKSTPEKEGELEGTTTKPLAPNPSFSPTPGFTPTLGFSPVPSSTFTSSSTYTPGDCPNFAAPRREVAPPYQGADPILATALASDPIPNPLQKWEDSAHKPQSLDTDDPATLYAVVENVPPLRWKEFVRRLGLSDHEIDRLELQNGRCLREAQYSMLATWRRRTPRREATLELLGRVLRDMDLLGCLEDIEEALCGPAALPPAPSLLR
UniProt P20333, residues 23-461: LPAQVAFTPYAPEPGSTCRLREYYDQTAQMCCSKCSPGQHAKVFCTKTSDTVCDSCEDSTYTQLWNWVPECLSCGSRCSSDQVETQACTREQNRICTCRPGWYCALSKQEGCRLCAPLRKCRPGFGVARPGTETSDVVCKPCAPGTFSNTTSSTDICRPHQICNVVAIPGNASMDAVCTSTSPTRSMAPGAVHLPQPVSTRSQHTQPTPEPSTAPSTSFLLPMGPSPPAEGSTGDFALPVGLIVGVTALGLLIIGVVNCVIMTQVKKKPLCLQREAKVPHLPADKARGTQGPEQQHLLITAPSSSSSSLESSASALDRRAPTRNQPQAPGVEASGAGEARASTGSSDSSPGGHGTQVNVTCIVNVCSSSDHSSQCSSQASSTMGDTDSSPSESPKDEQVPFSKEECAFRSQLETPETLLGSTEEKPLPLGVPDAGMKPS
UniProt Q13200: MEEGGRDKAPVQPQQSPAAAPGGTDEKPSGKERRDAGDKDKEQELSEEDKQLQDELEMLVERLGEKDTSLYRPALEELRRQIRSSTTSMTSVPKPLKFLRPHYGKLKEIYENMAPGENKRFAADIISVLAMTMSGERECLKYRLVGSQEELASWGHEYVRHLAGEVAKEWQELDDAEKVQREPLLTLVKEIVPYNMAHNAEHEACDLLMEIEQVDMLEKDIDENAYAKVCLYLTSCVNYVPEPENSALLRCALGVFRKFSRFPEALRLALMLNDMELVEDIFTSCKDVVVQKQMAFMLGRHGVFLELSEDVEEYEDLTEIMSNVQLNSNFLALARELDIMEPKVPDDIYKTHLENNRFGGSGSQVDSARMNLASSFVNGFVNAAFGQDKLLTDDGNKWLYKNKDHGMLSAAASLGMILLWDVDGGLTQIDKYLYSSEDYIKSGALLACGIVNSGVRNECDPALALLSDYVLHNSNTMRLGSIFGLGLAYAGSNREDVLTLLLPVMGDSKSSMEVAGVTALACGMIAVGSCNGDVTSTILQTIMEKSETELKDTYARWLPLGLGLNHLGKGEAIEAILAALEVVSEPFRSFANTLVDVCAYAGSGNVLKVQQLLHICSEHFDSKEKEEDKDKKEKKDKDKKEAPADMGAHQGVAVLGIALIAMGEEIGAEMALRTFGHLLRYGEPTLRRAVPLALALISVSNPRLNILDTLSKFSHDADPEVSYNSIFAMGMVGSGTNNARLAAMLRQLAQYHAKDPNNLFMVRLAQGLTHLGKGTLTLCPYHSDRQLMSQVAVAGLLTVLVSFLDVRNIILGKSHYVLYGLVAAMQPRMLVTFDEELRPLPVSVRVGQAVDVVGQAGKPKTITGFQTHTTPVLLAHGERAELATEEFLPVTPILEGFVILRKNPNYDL
UniProt Q9NQT4: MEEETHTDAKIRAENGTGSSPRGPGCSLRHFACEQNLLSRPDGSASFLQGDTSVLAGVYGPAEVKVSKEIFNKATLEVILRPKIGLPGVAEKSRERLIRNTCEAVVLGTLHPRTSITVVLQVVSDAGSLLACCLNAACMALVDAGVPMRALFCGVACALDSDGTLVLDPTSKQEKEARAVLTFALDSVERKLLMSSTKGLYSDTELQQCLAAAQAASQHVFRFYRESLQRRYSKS

How the values were obtained:
[1] = target: GST-p55IC (glutathione S-transferase fusion with full-length p55-IC) (human) (UniProt P19438); assay: in vitro pull-down: 35S-labelled protein from HeLa lysate on GST fusion on glutathione-agarose beads, SDS-PAGE, autoradiography
[2] = target: GST-p55IC345 (GST fusion with p55-IC C-terminally truncated up to amino acid 345) (human) (UniProt P19438); assay: as above
[3] = target: p75 (p75 TNF-R expressed in transfected HeLa cells) (UniProt P20333); assay: coprecipitation from transfected HeLa cells
[4] = target: p75 (p75 TNF-R expressed in transfected HeLa cells) (UniProt P20333); assay: coprecipitation (coIP) with p75 from transfected HeLa cells

Row | binding [1] | binding [2] | binding [3] | binding [4] | Substance
1 | binds | binds |  |  | FLAG-55.11 (residues 309-900 of 55.11 fused at the N terminus with the FLAG octapeptide) (from UniProt Q13200 318-899)
2 | binds | binds |  |  | full-length 55.11 protein (55.11-full) (from UniProt Q13200 11-899)
3 |  |  | binds | binds | E15 (p75IC-binding protein encoded by clone E15) (from UniProt Q9NQT4 1-235)
